Test results published in PMC6011117, “Comparative Evaluation of Radioiodine and Technetium-Labeled DARPin 9_29 for Radionuclide Molecular Imaging of HER2 Expression in Malignant Tumors” (Contrast Media & Molecular Imaging, 2018).
Results are given in words; binding and its absence hold for the method and conditions named. Some entries that bind do so weakly or less than the wild type.

B1: [125I]I-DARPin 9_29 (designed binder)
chain: MDLGKKLLEAARAGQDDEVRILMANGADVNAHDFYGITPLHLAANFGHLEIVEVLLKHGADVNAFDYDNTPLHLAADAGHLEIVEVLLKYGADVNASDRDGHTPLHLAAREGHLEIVEVLLKNGADVNAQDKFGKTAFDISIDNGNEDLAEILQKLAAALE
modifications: iodine-125 label attached to tyrosine (direct radioiodination)
notes: designed ankyrin repeat protein 9_29 against HER2; also called radioiodinated DARPin 9_29; source: E. coli BL21(DE3), purified (HisTrap HP, MonoQ); directly radioiodinated with chloramine T, purified on NAP-5; not shown: His6, C-terminal, kept
B2: [99mTc]Tc(CO)3-DARPin 9_29 (designed binder)
chain: MDLGKKLLEAARAGQDDEVRILMANGADVNAHDFYGITPLHLAANFGHLEIVEVLLKHGADVNAFDYDNTPLHLAADAGHLEIVEVLLKYGADVNASDRDGHTPLHLAAREGHLEIVEVLLKNGADVNAQDKFGKTAFDISIDNGNEDLAEILQKLAAALE
modifications: [99mTc]Tc(CO)3 chelated by the C-terminal hexahistidine tag
notes: designed ankyrin repeat protein 9_29 against HER2; also called 99mTc(CO)3-DARPin 9_29; [99mTc]Tc-DARPin 9_29; source: E. coli BL21(DE3), purified (HisTrap HP, MonoQ); labelled with technetium-99m tricarbonyl, purified on NAP-5; not shown: His6, C-terminal, kept
B3: DARPin 9_29 (unlabeled) (designed binder)
chain: MDLGKKLLEAARAGQDDEVRILMANGADVNAHDFYGITPLHLAANFGHLEIVEVLLKHGADVNAFDYDNTPLHLAADAGHLEIVEVLLKYGADVNASDRDGHTPLHLAAREGHLEIVEVLLKNGADVNAQDKFGKTAFDISIDNGNEDLAEILQKLAAALE

What follows are binders tested against human epidermal growth factor receptor 2 (HER2) (human (endogenous in SKOV-3, BT474, DU145)) (UniProt P04626) (assay: radioligand binding; cell-bound activity on HER2-expressing SKOV-3, BT474 and DU145 cells in dishes; labelled conjugate at 10 nM, 1 h at 37°C; control dishes presaturated for 30 min with a 100-fold excess (1000 nM) of unlabeled DARPin 9_29 or other agents; only the binder purified).

binding, binds:
B1
B2
B3
